The values that follow come from PubChem BioAssay AID1508600 (Functional Genomics Laboratory (NCATS/FGL), 2020).

Out of some 53,000 sequences screened, about 3,700 (7%) were called active.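 Rule for the calls: active = gene knockdowns whose robust z-score for IL-1 alpha signal is at least 2 or at most -2, so actives lie on both sides; inactive = the rest.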 The list shows a part of the results.

The nature of this assay: Components of the Cytosolic LPS Sensing Pathway: Gene Identification via Genome-wide siRNA Screen.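 Note: robust z of the log signal after scaling to non-targeting control siRNA wells of the plate.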 The following applies: RAW264.7 macrophages, IL-1a HTRF, actives lie on both sides, screened at 100 nM (by protocol), cells primed 5 h with Pam3CSK4 first. The procedure, abridged: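 RAW264.7; siRNA 100 nM final, RNAiMAX, 48h 37 degrees C; Pam3CSK4 5 h; LipidA + TransIT-TKO 24 h; IL-1a HTRF; CellTiter-Glo viability; robust z vs negative-control median.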
For orientation: TR-FRET usually uses a lanthanide donor and a delayed reading to cut background.
As to GCUAAGGACACAAAAUCCATT against Slc38a10, the z-score is inactive: 0.129.
The result for GGUGUUGAGACCAAUUAGCTT against Dqx1 reads inactive: -0.884; that for CGAAGCAAGAGCACUGCCUTT against Atp6v1h, inactive: 1.75.
The figure for CGACAUGUAAAACUAUUGUTT against Cd300e is inactive: 0.864.
The figure for GCUUUAUUGAUUCCACUAGTT against Zfp804a is inactive: -0.0417; for GCGAACGGACAUCUCCUUCTT against Akr1b8 it is inactive: 1.03.
Turning to GGCUUUUUUGCUAUCCUAUTT against Hoxc5, the z-score was inactive: -0.623.
As to CCUUUCACUAGCUAAGUGATT against Fbxl20, the z-score is inactive: 0.716.
The figure for GGUGUACUUUAUCUCACGATT against Olfr6 is inactive: 1.1; for GGAGAAGCAUGGCUAUAACTT against Rcor2 it is inactive: -0.393; for GCAAGUCCUCUACCUUCUCTT against Vmn1r210 it is inactive: -1.65.
The figure for GGCUAACAACAUCUUCUCCTT against Tlr7 is inactive: -1.64; for GGACAAGAAGAAGUCCAUUTT against Isl2 it is inactive: -0.127.
The result for CCUUUUCCGGUUAAAGCAGTT against Prmt3 reads inactive: 0.229; that for GCAAGAAUCGAUAUGAGAGTT against Cnmd, inactive: 0.561.
For “GGCAAGUCUCAAAUUAUUUTT against D930030D11Rik”, the z-score is inactive: 0.255.
The result for GGAGAUUUGUCAGAACCUCTT against Grk2 reads inactive: 0.261; that for GGCGAUGGAAAGACUGCACTT against Hus1b, inactive: 0.311; that for GGUCAAAGGGAAACAAGUUTT against Creb3l4, active: -2.02.
The result for GGGCAAAAGUUUAGAAAUCTT against Zfp697 reads inactive: 0.391; that for GGUUGGUGGUGCAGAUAGATT against Krt31, inactive: 0.0397; that for CCGUUCUCCAGGACUCUUUTT against Trir, inactive: -1.9.
The figure for GGCAUAGGUAUAUUUGAGUTT against Lep is inactive: -0.187; for CCUGAUUAAUGUGACUGGGTT against Dbr1 it is inactive: 0.347; for GGUUUGGCAAACAUUUCAUTT against Akr1c20 it is active: 2.02.
Take GCGUAUAGUUUCGAGAAAUTT against Mettl8: the z-score is inactive: 0.46.
Consider GGCAUGAACAACAUUACCATT against Zfp811, for which the z-score was inactive: -1.25.
Turning to GGAGAUGCAGAAAAUGAAUTT against Prim1, the z-score was inactive: 0.0789.
Regarding GGAAUUUGGUUAAAUGGAATT against Dio2, the z-score was inactive: -1.18.
The figure for GGCCCAAAGUUUAUCCAAGTT against Rasl12 is inactive: 1.78.
